The values that follow come from PubChem BioAssay AID1487 (National Center for Advancing Translational Sciences (NCATS), 2009).

The assay in a line: qHTS Assay for Modulators of Lamin A Splicing. The settings on record: HeLa LMNA splicing GFP/RFP minigene ratio, 48 h. The method, boiled down:
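Read-out is the ratio of GFP to DsRed2 object intensity, acquired by 488 nm laser-scanning cytometry on HeLa lamin A-EGFP minigene reporter cells. Compound incubation 48 hrs at 37 °C in Opti-MEM with 2% FBS; DMSO 0.5% final.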

[1] abbreviates: measured here: GFP splicing reporter channel.
Where [2] appears, read: measured here: RFP viability control channel.

Where “and” joins values, the source holds several entries; their conditions need not be identical. Equal values may be shown once. The list shows a part of the results. These are further read-outs of the screen, such as a control signal, another cell line or another target. No call is given for them. The list favours compounds with an active or inconclusive main result. The note in brackets gives the kind of curve behind each potency; many fits are weak.

As a reminder, the AC50 is the concentration at which the activity in the assay is half-maximal. As for `COC(=O)Nc1nc2ccc(C(=O)c3ccccc3)cc2[nH]1`, the AC50 reads like this: under setting [1], 1 µM [falling, full curve]; under setting [2], 0.891 µM [falling, full curve]. For `Cc1scc(C(=O)NNC(=S)NCC2CCCO2)c1-c1ccccc1` (centres undefined), the AC50 under setting [2] was 35.5 µM [rising, single point]. Same read-out and setting: the same measure for `CC(C)OC(=O)c1c(NS(=O)(=O)c2ccccc2)sc2c1CCCC2`: 12.6 µM [rising, single point]; for `c1ccc(-c2cc3nccc(-c4ccccn4)n3n2)cc1`: 35.5 µM [rising, single point]. Take `COc1ccc(-c2nnn(CC(=O)N(CC(=O)NC3CCCC3)c3cccc(C)c3)n2)cc1OC`: the AC50 under setting [1] was 35.5 µM [rising, single point] and the AC50 under setting [2] is 35.5 µM [rising, single point]. Take `Cc1nc2cc(N3CCOCC3)c(NC(=O)C3CC3)cc2c(=O)n1Cc1ccccc1`: the AC50 under setting [2] is 2.24 µM [rising, single point]. `c1ccc2oc(Cc3ccc(Cc4nc5ccccc5o4)cc3)nc2c1`: the AC50 under setting [1] is 12.6 µM [rising, single point] and the AC50 under setting [2] was 20 µM [rising, single point]. Turning to `CCOc1ccc(OCC)c(NC(=O)c2cnn(-c3ccc(F)cc3)c2C2CCN(C(=O)OC(C)(C)C)CC2)c1`, the AC50 under setting [1] is 2.82 µM [falling, partial curve]. As for `COc1cccc(-c2cncnc2NCc2cccc(C)c2)c1`, the AC50 is, setting by setting: under setting [1], 22.4 µM [falling, partial curve]; under setting [2], 20 µM [falling, partial curve].

As to `CCCNCc1cc(Br)ccc1OCC(=O)NCCc1ccccc1`, the AC50 under setting [1] is 0.0891 µM [rising, full curve, poor fit] and the AC50 under setting [2] is 0.0891 µM [rising, full curve]. Regarding `CCOc1ccc(NC(=O)Nc2ccc3nsnc3c2)cc1`, the AC50 was 1.78 µM [falling, full curve, poor fit] under setting [1] and 0.0501 µM [falling, full curve] under setting [2].

Take `O=C(c1cc2c(s1)CCCC2)N1CCN(S(=O)(=O)c2ccccc2C(F)(F)F)CC1`: the AC50 under setting [1] is 35.5 µM [rising, single point] and the AC50 under setting [2] was 22.4 µM [rising, single point]. `COc1ccc(-n2cc(CNC(C)c3ccncn3)c(-c3cccc(F)c3)n2)cc1` (centres undefined): the AC50 under setting [1] is 0.316 µM [rising, partial curve, poor fit]. For the molecule `N=C(N)c1ccc(OCCCCCOc2ccc(C(=N)N)cc2)cc1`, the AC50 runs as follows: under setting [1], 3.16 µM [falling, partial curve] and 6.31 µM [rising, partial curve] and 12.6 µM [rising, single point]; under setting [2], 3.16 µM [falling, single point] and 10 µM [rising, partial curve] and 3.98 µM [rising, full curve, poor fit]. Take `Cc1nn(-c2ccccc2)c(N2CCCC2)c1/C=N/NC(=S)Nc1ccccc1C(F)(F)F`: the AC50 under setting [2] is 11.2 µM [rising, partial curve]. Regarding `Cc1ccc(-n2ncc3c(NC4CCCC4)ncnc32)cc1`, the AC50 under setting [1] is 0.141 µM [falling, full curve, poor fit]. Still for that read-out and setting: to `COc1ccc(-c2nn(-c3ccccc3)cc2C(=O)Nc2nc(CC(C)=O)ns2)cc1` belongs 12.6 µM [rising, single point]. With `Oc1ccc(N=C/C=C/c2cccc(Br)c2)cc1-c1nc2ccccc2s1`, the AC50 is, setting by setting: under setting [1], 22.4 µM [rising, single point]; under setting [2], 20 µM [rising, partial curve].

As to `FC(F)(F)c1ccc(N2CCOCC2)c(Nc2nc3ccccc3n3cnnc23)c1`, the AC50 was 35.5 µM [falling, single point] under setting [1] and 25.1 µM [falling, single point] under setting [2].

In the case of `CCCn1cc(S(=O)(=O)c2ccccc2)c(=O)c2cc(F)c(N3CCCCCC3)cc21`, under setting [1], the AC50 is 0.355 µM [falling, partial curve].

In the case of `CC1CCn2c(nc3cc(C(=O)NCCc4ccccc4)ccc32)C1` (centres undefined), the AC50 is 0.316 µM [rising, partial curve, poor fit] under setting [1] and 0.2 µM [rising, full curve, poor fit] under setting [2]. `Cc1cc(OC(=O)c2c(Cl)cccc2Cl)nc(C)n1`: the AC50 under setting [2] was 12.6 µM [rising, partial curve]. Same read-out and setting: to `COC(=O)c1ccc(C)c(NC(=O)c2ccc(Cl)c([N+](=O)[O-])c2)c1` belongs 11.2 µM [rising, partial curve]. Regarding `COc1ccc(NC(=O)Cn2c(SCc3ccc(F)cc3)nc3cccnc32)c(OC)c1`, the AC50 under setting [1] is 35.5 µM [falling, partial curve, poor fit]. Take `Cc1cccc(Oc2sc(C(=O)c3ccccc3)c(N)c2C#N)c1`: the AC50 by setting is: under setting [1], 11.2 µM [falling, single point]; under setting [2], 35.5 µM [falling, single point]. Take `CCN(CC)CCN1C(=O)C(=O)/C(=C(/O)c2c(C)[nH]c(C(=O)OC)c2C)C1c1cccnc1` (centres undefined): the AC50 under setting [2] was 3.16 µM [falling, partial curve]. As to `CCCN(CCC)C(=O)[C@@H](CCC(=O)O)NC(=O)c1ccccc1`, the AC50 was 2 µM [falling, partial curve] under setting [1] and 3.16 µM [falling, partial curve] under setting [2]. In the case of `O=C(Nc1ccc(Oc2ccc(C(=O)O)c(C(=O)O)c2)cc1)c1cccs1`, under setting [2], the AC50 is 22.4 µM [falling, partial curve, poor fit]. As to `CC1=C(CCN2CCN(C3CCCC3)C(CCO)C2)C(C)(C)CCC1` (centres undefined), the AC50 reads like this: under setting [1], 5.01 µM [falling, full curve, poor fit]; under setting [2], 7.08 µM [falling, full curve]. In the case of `COc1cccc(-n2c(=O)c3c(C)c(C(=O)N(C)C)sc3n(Cc3cccc(C)c3)c2=O)c1`, the AC50 under setting [2] is 0.501 µM [falling, full curve, poor fit]. On the same count and under the same terms, the same measure for `Cc1cccnc1NC(=O)c1ccc([N+](=O)[O-])o1`: 31.6 µM [rising, single point].

On to `COc1cc(-c2oc3cc(O)ccc3c(=O)c2O)ccc1O`, for which the AC50 was 25.1 µM [falling, partial curve] under setting [1] and 15.8 µM [falling, partial curve] under setting [2].

Take `O=C(Cc1ccc(Cl)cc1)Nc1ncc([N+](=O)[O-])s1`: the AC50 by setting is: under setting [1], 35.5 µM [rising, single point]; under setting [2], 35.5 µM [rising, single point].
